# Measurements: ChEMBL document CHEMBL4513149, “CO-ADD screening of MMV (CH) - MMV compounds” (2021)
# Some of the results follow. Measured potencies and affinities stand elsewhere.
# System: Pseudomonas aeruginosa
# Details: Concentration 20 uM; ASSAY_TEST Inhibition of Bacterial Growth; detection method Absorption (OD600); MEDIA CAMHB; plate type 384well; NBS; CORNING #3640; time 18 hr
row,Compound,Inhibition
1,CCN(CC)C(=O)N1CCN(C)CC1 [DIETHYLCARBAMAZINE],13.01%
2,FC(F)(F)c1nnc2ccc(Cl)nn12,11.49%
3,COc1ccc(Cl)cc1NC(=O)CN(C)C(=O)c1cnn(-c2ccccc2)n1,2.45%
4,FC(F)(F)c1cccc(-c2nc3c(NCc4ccncc4)nccc3[nH]2)c1,8.07%
5,CNC(=O)c1cc(S(=O)(=O)N2CCN(c3ccccn3)CC2)cs1,3.66%
6,O=C1Nc2ccc(Br)cc2C12NCCc1c2[nH]c2ccccc12 (stereo not drawn),10.57%
7,CN1CCN(S(=O)(=O)c2ccc(-c3ccc4c(Nc5ccc6nn[nH]c6c5)ccnc4c3)cc2)CC1,1.3%
8,CCc1cc(=O)n(C)c(SC(C)C(=O)Nc2ccc(F)cc2)n1 (stereo not drawn),9.39%
9,Cc1ccc(NC(=O)CC2COc3ccccc3O2)cc1Cl (stereo not drawn),10.55%
10,COc1ccc(S(=O)(=O)Nc2ccc(CN3CCN(C(=O)c4cccc(C#N)c4)CC3)cc2)cc1,-4.07%
11,COc1ccccc1OCCCCn1c(C2CC2)nc2ccccc21,10.96%
12,CC(C(=O)N1CCCC1)N1CCN(S(=O)(=O)c2ccc(C(C)(C)C)cc2)CC1 (stereo not drawn),0.15%
13,CC(Oc1ccccc1)C(=O)Nc1nc(-c2ccccn2)cs1 (stereo not drawn),-9.98%
14,O=C(c1[nH]nc2c1CCCC2)N1CCN(Cc2ccc3c(c2)OCO3)CC1,8.14%
15,COc1cc(C(F)(F)F)nc2ccc(C)c(N)c12,7.92%
16,Cc1cc(C)c2cc(C(=O)NC3CCCCCCC3)[nH]c2c1,11.76%
17,Cc1ccc2[nH]c(C3CCCNC3)c(-c3ccncc3)c2c1.Cl.Cl (stereo not drawn),3.32%
18,CCCCc1ccc(C(=O)Nc2nccc3ccccc23)nc1,4.88%
19,CC(=O)Nc1ccc(-c2noc(CC3CCCN(Cc4cccc(F)c4C)C3)n2)cc1 (stereo not drawn),5.48%
20,Nc1ncc(-c2ccc(C(F)(F)F)nc2)cc1-c1ccc(C(F)(F)F)nc1,5.43%

# Individual results from the list.
# In Inhibition, O=C1Nc2ccc(Br)cc2C12NCCc1c2[nH]c2ccccc12 (stereo not drawn) is listed with 10.57%
# In Inhibition, FC(F)(F)c1cccc(-c2nc3c(NCc4ccncc4)nccc3[nH]2)c1 is listed with 8.07%
# In Inhibition, CC(Oc1ccccc1)C(=O)Nc1nc(-c2ccccn2)cs1 (stereo not drawn) is listed with -9.98%
# In Inhibition, CN1CCN(S(=O)(=O)c2ccc(-c3ccc4c(Nc5ccc6nn[nH]c6c5)ccnc4c3)cc2)CC1 is listed with 1.3%

# (continued)

row,Compound,Inhibition
1,Cc1cnc(N2CCN[C@@H](Cc3ccccc3)C2)nc1Oc1ccc(-n2ccnc2)cc1.Cl,2.78%
2,CCCCN(CCCC)c1c(C#N)cc(S(=O)(=O)Nc2ccccc2)cc1C#N,-2.72%
3,CCCNC(=O)N1CCC2(CC1)CC(=O)c1cc(C)ccc1O2,12.88%
4,Brc1c(-c2ccc3c(c2)OCO3)nc2ncccn12,7.52%
5,Cc1noc(C)c1C(=O)N1CCCC(c2[nH]c3c(C)cccc3c2-c2ccncc2)C1 (stereo not drawn),11.35%
6,O=[N+]([O-])c1cn2c(n1)OC[C@@H](OCc1ccc(OC(F)(F)F)cc1)C2 [PRETOMANID],16.92%
7,Cc1ccc(S(=O)(=O)Nc2ccc(CN3CCN(C(=O)c4cccc(C#N)c4)CC3)cc2)cc1,3.37%
8,CNc1nnc(Sc2cnn(-c3ccccc3)c(=O)c2Cl)s1,5.85%
9,COC(=O)c1ccc(F)cc1NS(=O)(=O)c1cccc(-c2cnn(Cc3ccccc3)c2)c1,21.29%
10,Cc1cc(Cl)c(S(=O)(=O)N2CCCC2)cc1OCC(=O)NC1CCCCC1,-0.88%
11,O=C(NC1CC1)c1ccc(CSCc2ccccc2Cl)o1,0.7%
12,COc1ccc(-c2cnc3ccc(N4CCCC4)nn23)cc1OC,11.73%
13,CCC(C)NC(=O)c1ccc(NC(=O)C2(c3ccccc3)CCCC2)cc1 (stereo not drawn),3.97%
14,CCC(=O)Nc1ccccc1C(=O)Nc1ccccn1,8.42%
15,CC1CCCCN1C(=O)NCCc1coc(-c2ccc(F)cc2)n1 (stereo not drawn),11.85%
16,CC1COC2(CCN(c3nc(=O)c4cc(C(F)(F)F)cc([N+](=O)[O-])c4s3)CC2)O1 (stereo not drawn),8.72%
17,Cc1nnc(NC(=O)c2cn(-c3ccccc3)nc2-c2ccccc2C)o1,16.6%
18,Cc1ccccc1C(=O)N1N=C(Nc2ccccc2)SC1(C)C,11.14%
19,CC[C@H](CO)NCCN[C@H](CC)CO.Cl.Cl,8.76%
20,CNc1snc(C)c1C(=O)NCCOc1ccc(OC)cc1,11.64%

row,Compound,Inhibition
1,CC(C)NCC(=O)Nc1cccc(C(=O)Nc2cccc(C(F)(F)F)c2)c1,0.73%
2,O=C(C1CCN(c2nnnn2-c2ccccc2)CC1)N1CCc2ccccc2C1,10.05%
3,COc1cc(C2=NCCN2)ccc1-c1cn(-c2cccc(C3=NCCN3)c2)nn1,20.94%
4,COc1cccc(NC(=O)c2c(NC(=O)c3cccnc3)sc3c2CCC3)c1,4.86%
5,CCOc1ccc(-c2nc(NC(=O)CS(=O)(=O)c3ccccc3)sc2C)cc1,8.92%
6,COc1ccc(-c2onc(C(F)(F)F)c2-c2ccc(Cl)cc2)c(O)c1,17.62%
7,NCCC(O)C(=O)N[C@@H]1C[C@H](N)[C@@H](OC2O[C@H](CN)[C@@H](O)[C@H](O)[C@H]2O)[C@H](O)C1OC1O[C@H](CO)[C@@H](O)[C@H](N)[C@H]1O.O=S(=O)(O)O.O=S(=O)(O)O (stereo partly drawn),14.8%
8,CC(Oc1cccc(Cl)c1)C(=O)Nc1ccc2oc(-c3ccncc3)nc2c1 (stereo not drawn),10.14%
9,CCCc1ccc(S(=O)(=O)Nc2ccc(CN3CCN(CC4CC4)CC3)cc2)cc1,14.16%
10,COc1ccc(-c2nc(-c3cccc(NC(=O)Cc4ccc(F)cc4)c3)no2)cc1OC,9.97%
11,Cc1cc(NCC(C)C)c2[nH]nc(-c3ccccc3)c2n1,14.96%
12,CNC(=O)C1Cc2c([nH]c3cc(Cl)ccc23)C2(CCN(CCc3ccccc3)CC2)N1 (stereo not drawn),10.67%
13,O=C(Nc1cccc(-c2ccc(NCCCN3CCCC3)nc2)c1)c1ccccc1,7.76%
14,CCn1cnc2c(Nc3cc(F)cc(F)c3)nc(C#N)nc21,11.19%
15,CCOc1ccccc1NC(C)C(=O)Nc1cc(C(F)(F)F)ccc1N1CCOCC1 (stereo not drawn),9.09%
16,CCOc1ccc(-c2nc(CNCCc3ccc(F)cc3)cs2)cc1,16.88%
17,Cc1ccc2cc(C3NC(=O)c4ccccc4N3)c(Cl)nc2c1 (stereo not drawn),15.71%
18,CC(=O)O.CC(=O)O.Nc1ncnc2c1ncn2[C@@H]1O[C@H](COS(=O)(=O)NC(=O)c2ccccc2O)[C@@H](O)[C@H]1O,9.27%
